Results on 18 molecules are retold here after article PMC10163288.

The other results are listed elsewhere or left out.

The chains are these.
B1: il2ra_site2_3nfp_normal_mot_HHH_b1_00660_af2_000000199_0001_40_57_H_._HHH_b2_07891_0001_0000100003_0000001_0 (protein)
chain: SSSSDEEEEVERLIERVKELIEEGNPEEARKVVARAAALAFEVNNFELFAKILELLALLASSSSS
B2: il2ra_site2_3nfp_sap_18_mot_HHH_b1_02060_af2_000000092_0001_1_15_H_._HHH_b1_04055_0001_0000900056_0000001_0_0001 (protein)
chain: SSSSDRAEEYLKLALELLELLEELGDEEALEKLLEMLELAAESNNDEEAKRLIEEVREELSSSSS
B3: il2ra_site1_2b5i_normal_mot_HHH_b2_04910_000000118_0001_1_19_H_._HHH_b1_00060_af2_0001_0000700046_0000001_0_af2pred_dldesign_0_af2pred (protein)
chain: SSSSSAEARRARELFLEAERLHQAGKEEEAKKLLEEALRLARAGKAPLLARIIELALSQLESSSS
B4: il2ra_site1_3nfp_sap_20_mot_HHH_b1_08027_af2_000000041_0001_1_17_H_._HHH_b1_02266_0001_0000200013_0000001_0_0001_af2pred_0001_af2pred (protein)
chain: SSSSSDSEEVRELLKRALEALENGNPEEARELAEEALEIAREAGSENLRKFIEVALKLINGSSSS
B5: il2ra_site1_2b5i_normal_mot_HHH_b1_07956_af2_000000065_0001_19_34_H_._ems_3hM_420_af2_0001_0000300033_0000001_0 (protein)
chain: SNVARIIKRLLEELREKAKENNNPEVEELAEEAIEILEEALRNNDVELLQEVDELYRRIDELASS
B6: il2ra_site2_3nfp_normal_mot_HHH_b1_00660_af2_000000090_0001_40_57_H_._HHH_b2_05870_0001_0000500009_0000001_0_af2pred_0001_1_af2pred_swapped (protein)
chain: SSSSSSDEVEELIRQAEELLEKGNPEEAEELLRKAAHIAYELGDHELFARIADLLAKVDSSSSSS
B7: il2ra_site2_2erj_sap_16_mot_HHH_b1_00941_000000051_0001_45_58_H_._HHH_b2_05386_0001_0000600022_0000001_0_0001 (protein)
chain: SSSSDDRLHRIFELAVRILAAWSRGNPEEARELLEELRELVEESDSENAKELVEALEKRLKSSSS
B8: il2ra_site1_1z92_normal_mot_01209686ea234b34325f918445e6eade_0001_af2_000000154_0001_18_33_H_._HHH_b2_08134_af2_0001_0000400045_0000001_0_af2pred_0001_af2pred_1 (protein)
chain: SSSSDEEEEELERFVEQLVKELGLSEEQEEVLRRLLERALEQGIDPEKIKRALERNAKILGSSSS
B9: il2ra_site2_2erj_normal_mot_HHH_b2_01275_af2_000000073_0001_23_39_H_._HHH_b2_05199_af2_0001_0000300024_0000001_0 (protein)
chain: SSSSSEELRQLYELAVILLHLLTRGDEEEFEKVLEEAKELAKELQSDTAKEILEFLEKELSSSSS
B10: il2ra_site1_1z92_sap_24_mot_HHH_b1_04917_000000121_0001_22_38_H_._HHH_b1_01483_af2_0001_0000600028_0000001_0_0001 (protein)
chain: SSSSSSEEELDQRVLELFREASKIRDQEEKERLLEEALRLAQEANSPKVEEDVERYLRLLSSSSS
B11: il2ra_site1_3nfp_normal_mot_HHH_b1_08723_000000044_0001_1_15_H_._HHH_b2_03161_0001_0000200008_0000001_0 (protein)
chain: SSSSDRSERLEELFRELFEAAQRNDPELIEELAKELLELAEENNSKTLFRSAKFALEWVNSSSSS
B12: il2ra_site1_1z92_sap_18_mot_HHH_b1_01497_af2_000000270_0001_43_57_H_._ec49256d0a76a2d41f5dd9f5c380ddc2_0001_1_af2_0001_0000400025_0000001_1_0001_af2pred_0001_af … (protein)
chain: SSSSSAELALEANRLLHEGNPEKVEEVLEEIRRYAEEYQSRTLERLLELLEEALRELEEDSSSSS
B13: il2ra_site1_1z92_sap_10_mot_919c246ba0fc10ef4578bdc7f1052ff8_0001_af2_000000062_0001_37_52_H_._HHH_b1_05429_0001_0000400029_0000001_1_0001 (protein)
chain: SSSSSAKEYVEEMARLKYEAYEKTGDEKAREWLEFMLRFAEVRGNEELREFVEKLIEELHRSSSS
B14: il2ra_site1_3nfp_sap_15_mot_HHH_b1_00306_000000144_0001_20_36_H_._HHH_b2_04392_af2_0001_0001900099_0000001_0_0001 (protein)
chain: SSSSDRADEFAEEMARQAHEHGNRKFLERLLEQAEWMAERSRDPKIQELAEEIEELLERLRSSSS
B15: il2ra_site1_2b5i_sap_15_mot_HHH_b2_00070_000000071_0001_43_56_H_._HHH_b2_04717_0001_0000600030_0000001_0_0001_af2pred_0001_af2pred (protein)
chain: SSSSDEEFEEVIELYREASKLLRQGNREQARELLEEALKIAEEAGDEVAAEDVKRILELLSSSSS
B16: il2ra_site1_2b5i_sap_9_mot_0e5a94e4a5addaac739760efb25f0f5d_0001_000000246_0001_18_32_H_._49678f45da0a336f03cbe5a93813d6e2_0001_1_0001_0000100008_0000001_0_0001 … (protein)
chain: SSSSEERELIRELLEEARRLREEGRPEEARRLLRMALKLARKHNDEELIAEVEALLEELESSSSS
B17: il2ra_site1_3nfp_normal_mot_HHH_b2_06110_000000263_0001_43_57_H_._HHH_b1_04304_af2_0001_0000100002_0000001_0_af2pred_0001_af2pred_1_swapped (protein)
chain: SSSSNDIIRESERIAKEVQRLLREGDQERAEELIEELEEIAKKANSRAAKIFVEELKKKASSSSS
B18: il2ra_site1_2b5i_normal_mot_HHH_b2_04910_000000118_0001_1_19_H_._HHH_b1_05819_af2_0001_0000400035_0000001_0_af2pred_dldesign_0_af2pred (protein)
chain: SSSSSDKEEALRLFLEANEAKQAGKAEEARRLLLEAERLARAAGANTLLRIIQSALENLESSSSS

The experiment has as its target il2ra, P01589. Kind of experiment: yeast display titration.
Regarding B1, the “apparent Kd” value is “inactive: no binding seen”.

Take B2: the “apparent Kd” value is “inactive: no binding seen”.

As for B3, the “apparent Kd” value was “inactive: no binding seen”.

For B4, the “apparent Kd” value is “inactive: no binding seen”.

As for B5, the “apparent Kd” value is “inactive: no binding seen”.

In the case of B6, the “apparent Kd” value is “inactive: no binding seen”.

As for B7, the “apparent Kd” value is “inactive: no binding seen”.

For the molecule B8, the “apparent Kd” value was “inactive: no binding seen”.

In the case of B9, the “apparent Kd” value was “inactive: no binding seen”.

For the molecule B10, the “apparent Kd” value was “inactive: no binding seen”.

Turning to B11, the “apparent Kd” value was “inactive: no binding seen”.

For B12, the “apparent Kd” value is “inactive: no binding seen”.

Regarding B13, the “apparent Kd” value was “inactive: no binding seen”.

Consider B14, for which the “apparent Kd” value is “inactive: no binding seen”.

For the molecule B15, the “apparent Kd” value was “inactive: no binding seen”.

As to B16, the “apparent Kd” value was “inactive: no binding seen”.

Turning to B17, the “apparent Kd” value is “inactive: no binding seen”.

On to B18, for which the “apparent Kd” value was “inactive: no binding seen”.
